Data published in publication PMC4130184.
Results are given in words; binding and its absence hold for the method and conditions named. In cells and extracts the contact can be indirect. Here binding means that the protein was enriched with, or labelled near, the bait; the list need not be complete. Tags and fused reporters may be left off the sequences shown.

Molecular target: T1, PLASTID REDOX … 2 (PRIN2), full length, fused to a cMyc-tag, expressed in Arabidopsis plants (Arabidopsis thaliana) (UniProt Q9XIK0)
T1 sequence: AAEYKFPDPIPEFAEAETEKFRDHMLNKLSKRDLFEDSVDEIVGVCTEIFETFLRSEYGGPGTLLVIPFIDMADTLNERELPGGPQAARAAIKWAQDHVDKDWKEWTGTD
Assay: affinity purification with mass spectrometry; PRIN2-cMyc complexes precipitated from chloroplast protein extract with anti-cMYC antibody on protein G magnetic beads, 1 h at 4°C; SDS-PAGE bands identified by mass spectrometry; non-transformed Col-0 as negative control; performed twice

B1: CHLOROPLAST STEM-LOOP BINDING PROTEIN 41 kDa (CSP41b), endogenous in Arabidopsis chloroplasts (protein, UniProt Q9SA52 51-378)
chain: SSEKKILIMGGTRFIGLFLSRILVKEGHQVTLFTRGKSPIAKQLPGESDQDFADFSSKILHLKGDRKDYDFVKSSLSAEGFDVVYDINGREAEEVEPILEALPKLEQYIYCSSAGVYLKSDILPHCEEDAVDPKSRHKGKLETESLLQSKGVNWTSIRPVYIYGPLNYNPVEEWFFHRLKAGRPIPVPNSGIQISQLGHVKDLATAFLNVLGNEKASREIFNISGEKYVTFDGLAKACAKAGGFPEPEIVHYNPKEFDFGKKKAFPFRDQHFFASVEKAKHVLGWKPEFDLVEGLTDSYNLDFGRGTFRKEADFTTDDMILSKKLVLQ
In the case of B1, the binding is reported as “binds”.
